Assay results as given in patent publication US20080004276A1, “Method for treating non-hodgkin's lymphoma” (priority 2006, published 2008).
For at least one compound, name, drawing or mass did not settle the structure.

How the values were obtained:
[1] = tested on: Hsp90 protein; test: Malachite Green assay of ATPase activity of Hsp90; assay type: biochemical; conditions: 37° C., 4 hours, FIG. 1
[2] = tested on: Her2; test: Degradation of Her2 in BT-474 cells, Western blot (Method 1); assay type: cell-based, human; conditions: overnight, FIG. 2
[3] = tested on: MDA-MB-435S; test: MDA-MB-435S nude mouse xenograft model; assay type: in vivo; conditions: 300 mg/kg IP, 5 times per week for 3 weeks; compared with 100 mg/kg 17-AAG; FIG. 3
Experimental: FBS was obtained from Sigma-Aldrich Corp. (St. Louis, Mo., USA), and all other reagents were obtained from Invitrogen Corp. (Carlsbad, Calif., USA). Approximately 4-5×10(6) cells that had been cryopreserved in liquid nitrogen were rapidly thawed at 37° C. and transferred to a 175 cm^2 tissue culture flask containing 50 ml of growth media and then incubated at 37° C. in a 5% CO2 incubator. The growth media was replaced every 2-3 days until the flask became 90% confluent, typically in 5-7 days. To passage and expand the cell line, a 90% confluent flask was washed with 10 ml of room temperature phosphate buffered saline (PBS) and the cells were disassociated by adding 5 ml 1× Trypsin-EDTA (Invitrogen) and incubating at 37° C. until the cells detached from the surface of the flask. To inactivate the trypsin, 5 ml of growth media was added and then the contents of the flask were centrifuged to pellet the cells. The supernatant was aspirated and the cell pellet was resuspended in 10 ml of growth media and the cell number determined using a hemocytometer. […]
Six to eight week old, female Crl:CD-1-nuBR (nude) mice were obtained from Charles River Laboratories (Wilmington, Mass., USA). […] Tumor volumes (V) were calculated by caliper measurement of the width (W), length (L) and thickness (T) of tumors using the following formula: V=[…]×(L×W×T). […]

Structure (SMILES) | inhibition of ATPase activity of Hsp90 ([1]; 4 μM) | inhibition of ATPase activity of Hsp90 ([1]; 40 μM) | degradation of Her2 ([2]; 0.5 μM) | degradation of Her2 ([2]; 2 μM) | degradation of Her2 ([2]; 5 μM) | growth rate of MDA-MB-435S cells in nude mice [3]
Oc1ccc(-c2nnc(S)n2-c2cccc3ccccc23)c(O)c1 [Compound 108, 3-(2,4-Dihydroxy-phenyl)-4-(naphthalen-1-yl)-5-mercapto-triazole] | significant inhibition | even greater inhibition of ATPase activity of Hsp90 than geldanamycin | partially degradated | partially degradated | almost completely degraded | –
CCc1cc(-c2nnc(S)n2-c2cccc3ccccc23)c(O)cc1O [Compound 49, 3-(2,4-Dihydroxy-5-ethyl-phenyl)-4-(naphthalen-1-yl)-5-mercapto-triazole] | – | – | partial degradated | complete degradation | complete degradation | decreased the growth rate of MDA-MB-435S cells in nude mice to a greater extent
